Experiment: Isothermal titration calorimetry, binding to polyP
Conditions: P700; HEPES buffer, pH 7.4, 25° C.
Experimental: The interaction of MPI and polyP was carried out at 25° C. using a MicroCal iTC200 calorimeter (MicroCal, Northampton, USA). Samples were prepared by making stock solutions of at least 100× the desired concentration at high volume and filtered using 0.2 µm filters (Millex, Merck Millipore Ltd). The pH of each solution was then measured to ensure that they were between 7.35 and 7.40. Prior to titration, stock solutions were diluted with the same filtered buffer and degassed. Titrations consisted of 25 consecutive injections of 1.5 μL volume and 5 sec duration each, with a 3 min interval between injections with only the first injection between 0.2 μL volume, not used as part of the fit. Heat of dilution was measured by injecting MPI solution into buffer alone and was subtracted from the experimental curves prior to data analysis. The resulting data were fit into a single set of identical sites model using the MicroCal ORIGIN software supplied with the instrument.

SMILES: CN(C)CCN(C)CCN(C)C [CBG I, N,NN′,N″,N″-pentamethyldiethylenetriamine]
- N (ratio of MPI to polyP): 0.004
